Values of other authors in US20100152206A1, “Bicyclic Dihydropyrimidines and Uses Thereof” (priority 2005, published 2010).
For at least one compound, name, drawing or mass did not settle the structure.

Tests used:
mitotic kinesin Eg5 = details: in vitro; cited from earlier work
mammalian cells = details: monopolar spindles; cited from earlier work

CCOC(=O)C1=C(C)NC(=S)NC1c1cccc(O)c1 (centres unmarked) [Monastrol, reference compound]
inhibition of motility of Eg5 (mitotic kinesin Eg5): specifically inhibited the motility
arrest of cells in mitosis (mammalian cells): capable of arresting mammalian cells in mitosis with monopolar spindles
